Assay results: publication PMC11241540
The exact form of at least one protein or probe is not confirmed.

Target: PrMADS11 (Pinus radiata D. Don) (UniProt A0A0R6IS23)
Assay: EMSA
Conditions: unlabeled DNA reduces shifted band; LightShift Chemiluminescent EMSA kit: binding buffer, poly(dI-dC), glycerol (50% stock), NP-40 (1% stock), MgCl2 (100 mM stock); 20 fmol biotinylated DNA; recombinant protein; residues 1-165; protein details: His-tag (pET301/DEST, native stop codon removed); label: biotin

| Sequence | binding result |
| --- | --- |
| AAATACTATATTTAGATCAA (double strand) [CARG3(466)] | binds |
| AAATCCATTATTATGAAAAC (double strand) [CARG6(1555)] | binds |
| CTTATCCATATTAGGACACC (double strand) [CARG1] | binds |
| CTTATCCTTATAGAGAACAC (double strand) | binds |
